Results from PubChem BioAssay (EPA / NIEHS).
Where “and” joins values, the source holds several entries; their conditions need not be identical. Identical values can stand only once. The inconclusive results got no clear call from the source; some entries with a clear call stand among them for comparison. Potencies of inconclusive entries are doubtful fits and often do not repeat. Where a structure was tested more than once in an assay, its records may differ in their call. Calls of active or inactive are those of the source. How the source made its calls: active means hit-call score of the fitted dose curve at least 0.9, where 1 is the maximum; inconclusive means response in the unintended direction; inactive means score below 0.9.

Experiment: TOX21_p53_BLA_p3_viability: Viability Assessment in the Tox21 HCT-116 p53 Agonism Beta-lactamase Assay, Phase 3 (AID 2283593);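 further: cells exposed to compound for 16 h before reading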
Description: TOX21_p53_BLA_p3 is a cell-based, single-readout assay that uses HCT116, a human intestinal cell line, […] in a 1536-well plate.TOX21_p53_BLA_p3_viability is an assay readout measuring cellular ATP content and detected with CellTiter-Glo Luciferase-coupled ATP quantitation.TOX21_p53_BLA_p3_viability used a type of viability reporter where loss-of-signal activity can be used to understand changes in the cell viability. Furthermore, this assay endpoint can be referred to as a secondary readout, because this assay has produced multiple assay endpoints where this one serves a viability function. To generalize the intended target to other relatable targets, this assay endpoint is annotated to the cell cycle intended target family, where the subfamily is cytotoxicity.
Thawing Method: Place 14 mL of pre-warmed thaw medium into a 15 mL of conical tub. Remove the vial of cells to be thawed from liquid nitrogen and thaw rapidly by placing at 37C in a water bath with gentle agitation for 1-2 minutes. Decontaminate the vial by wiping with 70% ethanol before opening in a biological safety cabinet. Transfer the vial contents drop-wise into 14 mL of thaw medium in a sterile 15-mL conical tub. Centrifuge cells at 900 rpm for 4 minutes and resuspend in thaw medium. Transfer contents to the T75 tissue culture flask containing Thaw Medium and place flask in a humidified 37C/5% CO2 incubator. Switch to growth medium at first passage.Propagation Method: Aspirate medium, rinse once in DPBS, add 0.25% Trypsin/EDTA and swirl to coat the cell evenly. Add an equal volume of Growth Medium to inactivate Trypsin after 2-3 minutes incubation at 37C. Centrifuge cells at 900 rpm for 4 minutes and resuspend in growth medium. Cell should be passage or fed at least twice a week.Assay Protocol: Harvest cells from culture in growth medium and resuspend in assay medium. 2.2 Dispense 4000 cells/5 uL/well into 1536-well black/clear bottom plates using a Multidrop dispenser. After the cells were incubated at 37C for 5 hours, 23 nL of compounds dissolved in DMSO were transferred to the assay plate by a PinTool resulting in a 217-fold dilution. Incubate the plates for 16 hours at 37C, 5% CO2. Add 1 uL of 6X LiveBLAzer FRET B/G (CCF4-AM) Substrate Mixture to each well using a BioRAPTR dispenser and incubate the plates at room temperature for 2 hours. Measure fluorescence intensity at 460 and 530 nm emission and 405 nm excitation by an Envision detector. Data is expressed as the ratio of 460nm/530nm emissions. Add 4 uL of Cell-titer Glo to each well using BioRAPTR and incubate the plates at room temperature for […]. For cell viability readout that measures cytotoxicity, 4 ul/well of CellTiter-Glo reagent was added into the assay plates using a Flying Reagent Dispenser. After 30 min incubation at room temperature, the luminescence intensity in the plates was measured using a ViewLux plate reader.

SMILES | AC50 | outcome
CCCCC(CC)COC(=O)/C=C\C(=O)OCC(CC)CCCC (stereo not given) | inconclusive: 46.1 µM | 
[O-][n+]1ccc(Cl)cc1 | inconclusive: 83.5 µM | 
CCCCCCCCOS(=O)(=O)O |  | inactive
Nc1ccccc1N | inconclusive: 47 µM | inactive
Cc1[nH]cnc1C[C@H]1CCc2c(C)c3ccccc3n2C1=O |  | inactive
CCCCCCC(=O)OCC | inconclusive: 46.1 µM | 
Oc1ccccc1 | inconclusive: 45.1 µM [middle of 4 runs] | 
CC(=O)OC/C=C(C)/C=C/C=C(C)/C=C/C1=C(C)CCCC1(C)C | inconclusive: 0.024 µM | 
Oc1c(Cl)cc(Cl)cc1Sc1cc(Cl)cc(Cl)c1O | active: 73.1 µM and active: 36.2 µM and active: 1.49 µM | 
O=C(C=Cc1ccccc1)OCCCc1ccccc1 |  | inactive
CCCCCC1CCC(=O)O1 (stereo not given) | inconclusive: 46.1 µM | 
CCCOC(=O)c1c(Cl)c(Cl)c(Cl)c(Cl)c1C(=O)OCCC | inconclusive: 15.1 µM | 
Cc1occc1C(=O)Nc1ccc(C(=O)N2CCC(F)(F)/C(=C\C(=O)N3CCC(N4CCCCC4)CC3)c3ccccc32)cc1 |  | inactive
Oc1ccc(Cc2ccccc2O)cc1 |  | inactive
CN(C)CCCN(C)C | inconclusive: 2.53 µM | 
Cc1cc(=O)[nH]c(=S)[nH]1 | inconclusive: 46.1 µM and inconclusive: 46.3 µM | inactive
Cc1ncc([N+](=O)[O-])n1C |  | inactive

SMILES | AC50 | outcome
OCc1ccc(Cl)cc1Cl | inconclusive: 46.1 µM and inconclusive: 23 µM | 
CCC(=O)OC(C)c1ccccc1 (stereo not given) | inconclusive: 46.1 µM | 
CC(C)OB(OC(C)C)OC(C)C | inconclusive: 0.385 nM and inconclusive: 80.3 µM | 
C=CCCCCCCCCCC |  | inactive
CCCCCCCCCCCC(=O)OC | inconclusive: 46.1 µM | 
[Cl][Bi]([Cl])([c]1ccccc1)([c]1ccccc1)[c]1ccccc1 | active: 71.4 µM | 
CCCCCCCCCCCCCCCC(=O)O | inconclusive: 46.5 µM | inactive
CCCCCC1CCCC(=O)O1 (stereo not given) | inconclusive: 46.1 µM | 
NC(=O)NO | inconclusive: 46.1 µM and inconclusive: 0.0131 nM | 
Nc1ccc(N)c2c1C(=O)c1ccccc1C2=O |  | inactive
CC(=O)CC(=O)Nc1ccc(C)cc1C |  | inactive
CCOC(=O)N1CCC(=C2c3ccc(Cl)cc3CCc3cccnc32)CC1 | active: 79.9 µM | 
O=C(O)c1snc(Cl)c1Cl |  | inactive
CC(C)=CCC/C(C)=C/CO | inconclusive: 81.5 µM and inconclusive: 7.02 µM | inactive
Cc1cc2nc3c(=O)[nH]c(=O)nc-3n(C[C@H](O)[C@H](O)[C@H](O)CO)c2cc1C | inconclusive: 23 µM | inactive
CC1(C)C(=O)N(Br)C(=O)N1Br | inconclusive: 46.1 µM | 
Cc1ccccc1C |  | inactive
